Data source: PubChem BioAssay AID493246 (Drosophila RNAi Screening Center, 2011)
The screen tested about 21,000 reagents; this is a random part of those that have a named target and a result. Over the whole deposit, 429 (2%) are marked active. 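Values are raw and not normalised between plates; calls rest on per-plate z-scores that were not deposited.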 The numbers tell different reagents against one gene apart. Names joined by + are all predicted targets of the reagent. Not stated in the record: the amount of reagent, the time to read-out.

Screen: 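Genes fly cells need to grow and stay alive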 (primary screen)
Cell system: Drosophila Kc and S2R+ cells
Knock-down reagent: long dsRNA against Drosophila genes
Detection: 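Raw, unnormalised count of remaining cells in each well; per-plate z-scores of cell number underlie the calls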
Direction: Kc cell number and S2R+ cell number: higher = more cells remaining
Rule for the call: 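Counted as a hit if cell number falls by a z-score of at least 3 within its plate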

"Kc cell number, rep 1","Kc cell number, rep 2","S2R+ cell number, rep 1","S2R+ cell number, rep 2",activity call,Gene,reagent no.
1.53e6,1.60e6,1.19e6,1.30e6,inactive,CG13872,1
5.24e5,,8.38e5,,inactive,Ldaf1 (Lipid droplet assembly factor 1),1
1.41e6,1.58e6,9.96e5,1.06e6,inactive,Archease,1
1.52e6,1.46e6,1.11e6,1.18e6,inactive,CG33281,1
1.66e6,1.80e6,8.56e5,1.07e6,inactive,gNacalpha,1
1.33e6,1.50e6,1.05e6,1.14e6,inactive,bisc (biscotti),1
1.77e6,1.70e6,1.03e6,1.17e6,inactive,Rad60,1
1.67e6,1.73e6,1.27e6,1.38e6,inactive,sstn (stepping stone),1
1.44e6,1.44e6,1.01e6,1.01e6,inactive,Coop (Corepressor of Pangolin),1
1.56e6,1.60e6,1.04e6,1.19e6,inactive,CG14416,1
1.62e6,1.66e6,1.24e6,1.26e6,inactive,msl-3 (male-specific lethal 3),1
1.63e6,1.49e6,1.28e6,1.42e6,inactive,Gr28b (Gustatory receptor 28b),1
1.63e6,1.55e6,1.22e6,1.43e6,inactive,Gr28b (Gustatory receptor 28b),2
1.46e6,1.31e6,1.25e6,1.48e6,inactive,UbcE2M (NEDD8-conjugating enzyme UbcE2M),1
1.19e6,1.38e6,9.76e5,1.03e6,inactive,scra (scraps),1
1.37e6,1.47e6,8.64e5,9.30e5,inactive,Brr2 (Brr2 U5 snRNP complex subunit),1
1.56e6,1.62e6,1.39e6,1.44e6,inactive,CG42675,1
1.28e6,1.34e6,1.03e6,1.10e6,inactive,CG6495,1
5.38e5,,7.94e5,,inactive,CG1907,1
1.74e6,1.56e6,1.35e6,1.31e6,inactive,CG13313,1
1.72e6,1.63e6,1.04e6,1.18e6,inactive,"alpha4GT2 (alpha1,4-galactosyltransferase 2)",1
4.48e5,,7.48e5,,inactive,CG1750,1
1.37e6,1.73e6,1.13e6,1.18e6,inactive,CG33502 + CG32857 + CG32500,1
1.65e6,1.51e6,1.04e6,1.14e6,inactive,CG33502 + CG32857 + CG32500,2
5.65e5,,8.27e5,,inactive,nonC (no-on-and-no-off transient C),1
1.39e6,1.39e6,1.00e6,1.06e6,inactive,nonC (no-on-and-no-off transient C),2

An excerpt taken from the entries so far, as a working copy:
"Kc cell number, rep 1","Kc cell number, rep 2","S2R+ cell number, rep 1","S2R+ cell number, rep 2",activity call,Gene,reagent no.
1.62e6,1.66e6,1.24e6,1.26e6,inactive,msl-3 (male-specific lethal 3),1
1.63e6,1.49e6,1.28e6,1.42e6,inactive,Gr28b (Gustatory receptor 28b),1
1.63e6,1.55e6,1.22e6,1.43e6,inactive,Gr28b (Gustatory receptor 28b),2
1.46e6,1.31e6,1.25e6,1.48e6,inactive,UbcE2M (NEDD8-conjugating enzyme UbcE2M),1
1.19e6,1.38e6,9.76e5,1.03e6,inactive,scra (scraps),1
1.37e6,1.47e6,8.64e5,9.30e5,inactive,Brr2 (Brr2 U5 snRNP complex subunit),1

The listing continues.
"Kc cell number, rep 1","Kc cell number, rep 2","S2R+ cell number, rep 1","S2R+ cell number, rep 2",activity call,Gene,reagent no.
1.57e6,1.57e6,1.21e6,1.25e6,inactive,rumi,1
1.53e6,1.57e6,9.26e5,9.89e5,inactive,CG14841,1
1.43e6,1.45e6,1.13e6,1.26e6,inactive,Trissin,1
1.69e6,1.42e6,1.04e6,1.38e6,inactive,Cpr64Ad (Cuticular protein 64Ad),1
1.33e6,1.39e6,1.16e6,1.22e6,inactive,SCOT (Succinyl-CoA:3-ketoacid CoA transferase),1
1.32e6,1.34e6,1.23e6,1.24e6,inactive,gammaTub37C (gamma-Tubulin at 37C),1
1.41e6,1.39e6,1.11e6,1.34e6,inactive,drpr (draper),1
1.54e6,1.44e6,1.09e6,1.26e6,inactive,drpr (draper),2
1.59e6,1.58e6,9.79e5,1.18e6,inactive,y (yellow),1
1.02e6,1.40e6,1.08e6,1.06e6,inactive,trv (trivet),1
1.41e6,1.49e6,9.38e5,1.05e6,inactive,trv (trivet),2
1.41e6,1.43e6,9.57e5,1.08e6,inactive,trv (trivet),3
1.50e6,1.51e6,9.79e5,1.11e6,inactive,trv (trivet),4
1.36e6,1.40e6,1.26e6,1.22e6,inactive,DEF8 (differentially expressed in FDCP 8 homolog),1
